Experiment: Coreflood
Conditions: for Formation damage: coreflood
Protocol: Two corefloods were carried out simultaneously on two Bandera outcrop cores (1.5″ diameter by 3″ length), using a Scaled Solutions dual coreflood apparatus. The composition of these cores is set out in the table below:
Both cores were wrapped with PTFE tape and cased in heat shrink tubing prior to insertion into a Viton sleeve and mounted in a Hassler type core holder with a confining pressure of 1200 psi. Both cores were then flushed with synthetic brine at 1 mL/min for at least 2 hours and until the differential pressure was stable. Brine was flushed at 0.5 mL/min overnight.
Both cores were saturated with synthetic brine under ambient conditions in the forward direction at 1 mL/min for 10 minutes, 2 mL/min for 10 minutes, 3 mL/min for 10 minutes, and 4 mL/min for 2 hours and until the differential pressure was stable. After a stable differential pressure was achieved, the permeability to brine was measured in the forward flow by flooding at 4, 3, 2, 1 mL/min at room temperature.
Brine was then injected into both cores in the forward direction at 1 mL/min until the oven reached a temperature of 80° C. The cores were each saturated with synthetic brine by injecting in the forward direction at 1 mL/min for 10 minutes, 2 mL/min for 10 minutes, 3 mL/min for 10 minutes, and 4 mL/min for 2 hours and until the differential pressure was stable. Following plug saturation, the permeability of each core to synthetic brine was measured in the forward flow by flooding at 4, 3, 2, and 1 mL/min at 80° C.
The pore volume of each core was then determined by injecting a solution of 50 mg/L lithium in synthetic brine into each core for 30 minutes at 1 mL/min with 0.5 mL effluent samples collected by an auto sampler. […]
Both cores were injected with synthetic brine at 2 mL/min with effluent samples being collected. The samples were analyzed by ICP. Samples were collected and analyzed until the residual scale inhibitor concentration was below the minimum inhibitor concentration.
Brine was injected into each core in the forward direction at 4 mL/min until the differential pressure was stable in order to saturate each core with brine. Following saturation, the permeability of each core to synthetic brine was measured in the forward flow by flooding at 4, 3, 2, and 1 mL/min at 80° C.
In order to determine the post treatment pore volume of both cores, a solution of 50 mg/L lithium in synthetic brine was injected into each core for 30 minutes at 1 mL/min with 0.5 mL effluent samples collected by an auto sampler. […] Each of these samples was analyzed by ICP to determine the pore volume.
A series of saturations and measurements were carried out using multi-rate flow to allow the permeability of each core to be calculated using Darcy's Law. […]

C[N+](C)(C)CC(O)C[N+](C)(C)C.[Cl-].[Cl-] [Product A, 1,3-propandiaminium, 2-hydroxy-N,N,N,N′,N′,N′-hexamethyl-, dichloride]
Formation damage: no threat of formation damage

O=P(O)(O)CN(CCCCCCN(CP(=O)(O)O)CP(=O)(O)O)CCCCCCN(CP(=O)(O)O)CP(=O)(O)O [Product B, BHMT phosphonate]
Return curve plateau concentration of scale inhibitor (FIG. 7): 1 mg/L | Pore volumes of brine until Product B concentration dropped below minimum acceptable inhibitor concentration (MIC) (MIC of 5 ppm, post flush with synthetic brine 2 mL/min): 1900 pore volumes | Formation damage: no formation damage
